Key:
Format in all cases: cell-based
[1] = test system: MCF-7 (human breast cancer); assay: MTT cytotoxicity assay, MCF-7; details: read-out: IC50 MCF-7, 72 h continuous treatment
[2] = test system: A549 (human lung cancer); assay: MTT cytotoxicity assay, A549; details: read-out: IC50 A549, 72 h continuous treatment
[3] = test system: HeLa (human cervical cancer); assay: MTT cytotoxicity assay, HeLa; details: read-out: IC50 HeLa, 72 h continuous treatment

Q: How did the IC50 [1] turn out when `N.N.[Cl][Pt][Cl]` [cisplatin, cis-diamminedichloroplatinum(II)] was run?
A: 14 ± 3 µM

Q: And the IC50 [2]?
A: 3.2 ± 0.6 µM

Q: What about the IC50 [3] of the same molecule?
A: 2.1 ± 0.1 µM
